Reference: publication PMC9629621
Results are given in words; binding and its absence hold for the method and conditions named. Binding seen in cells or lysates may run through a third protein. Some results given as binding are weak or reduced against the parent protein; the word gives no strength. For some of these results: Tags and fused reporters may be left off the sequences shown.

The chains behind the UniProt entries cited, without tags or fusion partners.
UniProt P47079: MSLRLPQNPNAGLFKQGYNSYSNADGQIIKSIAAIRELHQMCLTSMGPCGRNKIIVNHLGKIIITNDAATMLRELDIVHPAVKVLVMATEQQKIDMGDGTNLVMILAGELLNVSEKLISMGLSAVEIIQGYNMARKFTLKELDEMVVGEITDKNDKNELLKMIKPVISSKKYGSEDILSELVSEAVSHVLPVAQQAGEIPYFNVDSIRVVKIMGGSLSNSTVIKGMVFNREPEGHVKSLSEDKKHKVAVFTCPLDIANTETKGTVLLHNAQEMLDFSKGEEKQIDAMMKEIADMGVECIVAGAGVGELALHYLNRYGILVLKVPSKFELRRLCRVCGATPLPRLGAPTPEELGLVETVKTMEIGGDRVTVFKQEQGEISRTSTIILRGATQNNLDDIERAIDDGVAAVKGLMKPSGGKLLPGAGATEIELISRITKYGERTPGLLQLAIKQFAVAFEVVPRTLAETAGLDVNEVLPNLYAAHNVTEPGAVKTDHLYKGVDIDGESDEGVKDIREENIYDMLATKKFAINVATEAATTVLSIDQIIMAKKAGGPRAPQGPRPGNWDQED
UniProt P10591: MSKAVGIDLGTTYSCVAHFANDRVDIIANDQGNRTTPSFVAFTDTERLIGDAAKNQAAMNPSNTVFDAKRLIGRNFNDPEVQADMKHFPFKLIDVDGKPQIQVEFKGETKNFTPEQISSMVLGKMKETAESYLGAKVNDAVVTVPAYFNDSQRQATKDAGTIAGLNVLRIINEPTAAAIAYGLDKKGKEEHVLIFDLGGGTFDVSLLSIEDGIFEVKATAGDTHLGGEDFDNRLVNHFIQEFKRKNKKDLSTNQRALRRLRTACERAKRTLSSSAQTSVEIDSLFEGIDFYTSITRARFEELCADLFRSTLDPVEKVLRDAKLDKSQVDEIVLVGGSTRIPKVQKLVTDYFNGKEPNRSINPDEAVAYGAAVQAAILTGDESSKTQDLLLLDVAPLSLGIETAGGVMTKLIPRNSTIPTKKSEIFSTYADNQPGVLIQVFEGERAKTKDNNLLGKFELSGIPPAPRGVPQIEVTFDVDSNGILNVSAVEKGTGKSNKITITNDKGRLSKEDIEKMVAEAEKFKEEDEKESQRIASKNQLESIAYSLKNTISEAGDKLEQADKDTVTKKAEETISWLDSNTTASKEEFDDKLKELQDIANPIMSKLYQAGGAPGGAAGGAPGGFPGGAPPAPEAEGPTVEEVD
UniProt P25491: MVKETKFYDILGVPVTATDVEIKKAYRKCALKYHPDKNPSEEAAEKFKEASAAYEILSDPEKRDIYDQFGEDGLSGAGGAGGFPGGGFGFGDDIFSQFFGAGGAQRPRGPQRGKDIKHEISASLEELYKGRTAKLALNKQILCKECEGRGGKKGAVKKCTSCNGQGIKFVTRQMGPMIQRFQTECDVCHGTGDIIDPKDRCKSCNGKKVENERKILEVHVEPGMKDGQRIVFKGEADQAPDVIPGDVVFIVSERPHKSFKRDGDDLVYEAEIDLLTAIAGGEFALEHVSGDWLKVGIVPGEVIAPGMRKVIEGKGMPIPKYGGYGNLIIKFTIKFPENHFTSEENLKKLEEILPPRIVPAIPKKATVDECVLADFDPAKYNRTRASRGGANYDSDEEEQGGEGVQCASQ

Columns and labels:
Assay in all cases: co-IP; yeast extract (200 ug) on anti-HA magnetic beads, 4°C, 30 min; 50 mM Na-phosphate pH 8.0, 300 mM NaCl, 0.01% Tween-20; western blot
[1] = biological target: Cct8 with an HA epitope tag at the carboxy terminus (S. cerevisiae) (UniProt P47079)
[2] = biological target: T1, Sse1 with an HA epitope tag at the carboxy terminus (S. cerevisiae) (UniProt P32589)
T1 sequence: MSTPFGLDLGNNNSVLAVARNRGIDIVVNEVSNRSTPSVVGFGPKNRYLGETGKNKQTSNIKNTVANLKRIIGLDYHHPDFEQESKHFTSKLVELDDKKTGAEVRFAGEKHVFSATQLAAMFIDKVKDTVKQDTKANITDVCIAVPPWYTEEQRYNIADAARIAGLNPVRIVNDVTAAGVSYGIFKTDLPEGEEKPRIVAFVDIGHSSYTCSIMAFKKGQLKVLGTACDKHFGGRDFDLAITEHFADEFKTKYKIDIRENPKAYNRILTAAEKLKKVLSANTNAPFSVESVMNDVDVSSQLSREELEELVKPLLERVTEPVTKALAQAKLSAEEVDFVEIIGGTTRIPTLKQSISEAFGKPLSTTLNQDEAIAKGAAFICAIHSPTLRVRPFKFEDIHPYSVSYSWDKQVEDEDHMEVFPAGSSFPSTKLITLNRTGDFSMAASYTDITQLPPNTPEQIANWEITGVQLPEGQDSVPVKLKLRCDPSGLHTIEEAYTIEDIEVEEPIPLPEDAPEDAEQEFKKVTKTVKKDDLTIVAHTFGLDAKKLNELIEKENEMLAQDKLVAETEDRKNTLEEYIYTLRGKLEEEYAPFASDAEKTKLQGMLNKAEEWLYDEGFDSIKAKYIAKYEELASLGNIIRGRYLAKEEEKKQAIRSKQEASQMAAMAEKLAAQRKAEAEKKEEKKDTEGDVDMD

[3] = biological target: T2, Ura8 with an HA epitope tag at the carboxy terminus (S. cerevisiae) (UniProt P38627)
T2 sequence: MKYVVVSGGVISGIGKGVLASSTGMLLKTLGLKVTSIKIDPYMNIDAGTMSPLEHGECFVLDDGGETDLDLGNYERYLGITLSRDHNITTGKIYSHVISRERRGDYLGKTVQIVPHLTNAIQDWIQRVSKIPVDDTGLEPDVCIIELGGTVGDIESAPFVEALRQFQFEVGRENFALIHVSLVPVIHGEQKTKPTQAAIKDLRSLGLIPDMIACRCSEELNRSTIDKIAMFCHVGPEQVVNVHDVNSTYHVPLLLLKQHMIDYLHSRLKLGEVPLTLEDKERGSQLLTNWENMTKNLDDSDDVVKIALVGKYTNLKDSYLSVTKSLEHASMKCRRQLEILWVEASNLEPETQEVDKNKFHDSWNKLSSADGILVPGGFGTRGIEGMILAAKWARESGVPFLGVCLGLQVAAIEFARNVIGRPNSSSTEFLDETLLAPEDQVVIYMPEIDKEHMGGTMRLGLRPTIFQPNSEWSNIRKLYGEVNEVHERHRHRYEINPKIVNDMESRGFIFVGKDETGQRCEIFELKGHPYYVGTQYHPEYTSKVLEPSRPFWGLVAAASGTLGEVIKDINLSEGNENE

[4] = biological target: T3, HA-Ste11 (wild type) (S. cerevisiae) (UniProt P23561)
T3 sequence: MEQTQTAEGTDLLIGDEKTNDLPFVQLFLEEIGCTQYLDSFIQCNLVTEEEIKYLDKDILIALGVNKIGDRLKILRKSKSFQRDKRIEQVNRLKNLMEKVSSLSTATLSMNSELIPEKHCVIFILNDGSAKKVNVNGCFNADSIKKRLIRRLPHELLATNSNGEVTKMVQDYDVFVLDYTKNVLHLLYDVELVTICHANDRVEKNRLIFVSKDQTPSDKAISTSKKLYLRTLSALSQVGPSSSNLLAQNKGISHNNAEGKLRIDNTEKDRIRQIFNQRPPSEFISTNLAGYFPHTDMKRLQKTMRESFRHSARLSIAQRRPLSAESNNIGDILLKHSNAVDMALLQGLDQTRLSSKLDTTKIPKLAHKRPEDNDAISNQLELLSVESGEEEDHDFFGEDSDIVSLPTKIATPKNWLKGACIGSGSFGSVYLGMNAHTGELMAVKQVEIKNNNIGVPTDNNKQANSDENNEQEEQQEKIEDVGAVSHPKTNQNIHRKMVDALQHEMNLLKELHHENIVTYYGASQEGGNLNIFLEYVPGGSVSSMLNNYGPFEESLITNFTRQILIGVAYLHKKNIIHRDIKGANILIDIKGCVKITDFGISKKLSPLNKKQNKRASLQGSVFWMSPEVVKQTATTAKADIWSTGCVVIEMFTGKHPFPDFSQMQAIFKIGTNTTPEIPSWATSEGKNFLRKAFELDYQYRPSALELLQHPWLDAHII

[5] = biological target: T4, Pcl7 with an HA epitope tag at the carboxy terminus (S. cerevisiae) (UniProt P40186)
T4 sequence: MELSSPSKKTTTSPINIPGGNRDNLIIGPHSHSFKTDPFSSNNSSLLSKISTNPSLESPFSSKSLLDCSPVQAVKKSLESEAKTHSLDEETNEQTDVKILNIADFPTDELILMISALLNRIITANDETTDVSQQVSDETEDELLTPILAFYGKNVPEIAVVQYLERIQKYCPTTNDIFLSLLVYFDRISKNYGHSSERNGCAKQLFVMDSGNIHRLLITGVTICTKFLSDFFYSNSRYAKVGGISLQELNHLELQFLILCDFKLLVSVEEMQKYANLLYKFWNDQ

binding [1]	binding [2]	binding [3]	binding [4]	binding [5]	Substance
binds	binds	binds	binds	binds	Ssa1 (endogenous, detected with anti-Ssa1) (from UniProt P10591 1-642)
binds	binds	binds	binds	binds	Ydj1 co-chaperone (from UniProt P25491 1-409)
